Experimental data as given in doi:10.1101/2025.05.19.654826.
Read-outs that look alike come from different tables or passages of the source. These are yes or no findings as the source states them, for the method shown. Binding seen in cells or lysates may run through a third protein. Some results given as binding are weak or reduced against the parent protein; the word gives no strength. Sequences can lack the tags named with a protein.

By UniProt entry, the sequences of proteins in these tests, tags left out.
UniProt P0A3F4: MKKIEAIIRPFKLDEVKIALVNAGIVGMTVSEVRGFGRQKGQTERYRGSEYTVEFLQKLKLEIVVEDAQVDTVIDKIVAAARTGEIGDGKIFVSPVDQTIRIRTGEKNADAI

Assays:
Assay in all cases: split reporter
[1] = target: T1, NtcA-LgBiT fusion protein (Synechococcus elongatus PCC 7942) (UniProt P29283)
T1 sequence: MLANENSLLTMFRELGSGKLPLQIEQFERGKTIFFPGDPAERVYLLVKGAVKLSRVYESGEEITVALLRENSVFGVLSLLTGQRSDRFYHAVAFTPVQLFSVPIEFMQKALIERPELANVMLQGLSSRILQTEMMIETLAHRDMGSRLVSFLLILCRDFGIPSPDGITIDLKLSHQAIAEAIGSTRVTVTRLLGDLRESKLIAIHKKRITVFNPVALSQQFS

[2] = target: T2, EngA-LgBiT fusion protein (Synechococcus elongatus PCC 7942) (UniProt Q31KP9)
T2 sequence: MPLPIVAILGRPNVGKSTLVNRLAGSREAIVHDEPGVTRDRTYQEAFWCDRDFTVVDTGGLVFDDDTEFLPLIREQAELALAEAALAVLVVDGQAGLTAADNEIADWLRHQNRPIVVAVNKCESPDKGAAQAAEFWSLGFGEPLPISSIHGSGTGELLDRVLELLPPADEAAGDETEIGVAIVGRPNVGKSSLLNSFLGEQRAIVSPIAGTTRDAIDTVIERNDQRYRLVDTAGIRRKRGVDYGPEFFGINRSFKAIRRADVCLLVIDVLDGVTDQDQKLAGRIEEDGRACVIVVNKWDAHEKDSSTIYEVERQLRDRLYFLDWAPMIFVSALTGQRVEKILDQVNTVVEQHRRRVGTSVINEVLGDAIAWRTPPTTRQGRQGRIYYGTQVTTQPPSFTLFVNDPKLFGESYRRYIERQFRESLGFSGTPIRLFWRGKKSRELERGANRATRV

[3] = target: T1, NtcA-LgBiT fusion protein (Synechococcus elongatus PCC 7942); remark: listed apart in the source
[4] = target: PII-LgBiT fusion protein (Synechococcus elongatus PCC 7942) (UniProt P0A3F4)

binding [1]: binds weakly | binding [2]: binds | binding [3]: binds | binding [4]: binds
B1: PipX-SmBiT fusion protein (protein, UniProt Q7X386 1-89)
chain: MASENYLNHPTFGLLYQICSFGDSKELFATLYAQRLFFLVAFDARGTRFEPIGRNEARMLVDNRLRQLRRDASLQEYNQLQQVFKQTFL
